For the experiment, the target named is T1, recombinant GRP78 protein (human, UniProt P11021 19-650, limits assumed).
T1 construct: also called HSPA5/GRP78 (Active Protein) Human Protein (ORIGENE, Cat. No. AR03021PU-L); glucose-regulated protein 78
The experiment is described as follows: binding to recombinant GRP78 (Example 2: ELISA, Biacore). (In general: An ELISA detects its analyte on a solid surface through an enzyme-linked reagent.)

Chains of the proteins cited; added tags and fusions are not shown. Residues count along the entry.
UniProt P11021, residues 19-650: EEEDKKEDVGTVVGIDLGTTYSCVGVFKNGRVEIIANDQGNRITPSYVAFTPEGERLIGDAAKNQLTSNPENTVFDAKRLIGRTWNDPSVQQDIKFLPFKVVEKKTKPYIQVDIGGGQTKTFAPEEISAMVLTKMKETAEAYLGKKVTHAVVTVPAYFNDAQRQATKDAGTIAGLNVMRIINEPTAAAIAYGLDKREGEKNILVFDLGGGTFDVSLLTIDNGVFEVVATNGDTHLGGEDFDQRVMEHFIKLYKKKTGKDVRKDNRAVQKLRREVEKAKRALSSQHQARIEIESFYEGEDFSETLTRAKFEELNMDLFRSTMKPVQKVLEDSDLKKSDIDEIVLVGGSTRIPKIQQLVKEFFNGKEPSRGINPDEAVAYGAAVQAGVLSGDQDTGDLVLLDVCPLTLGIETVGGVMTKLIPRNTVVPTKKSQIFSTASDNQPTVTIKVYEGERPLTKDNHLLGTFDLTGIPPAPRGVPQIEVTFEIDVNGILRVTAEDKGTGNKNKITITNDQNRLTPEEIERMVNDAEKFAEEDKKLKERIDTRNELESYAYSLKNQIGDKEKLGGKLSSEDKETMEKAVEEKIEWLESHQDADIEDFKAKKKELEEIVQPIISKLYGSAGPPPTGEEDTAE

Results are given in words; binding and its absence hold for the method and conditions named. Some entries that bind do so weakly or less than the wild type.

B1: anti-GRP78 antibody G2D03 (antibody, V domains shown)
VH: EVQLVESGGGLVQPGGSLRLSCAASGFTFSQYAMAWVRQAPGKGLEWVSGISPYGSNTRYADSVKGRFTISRDNSKNTLYLQMNSLRAEDTAVYYCARNGGYSYTWFDLWGQGTLVTVSS
VL: DIQMTQSPSSLSASVGDRVTITCRASQSISSDLAWYQQKPGKAPKLLIYWASKLQSGVPSRFSGSGSGTDFTLTISSLQPEDFATYYCMQMYNTPPTFGQGTKVEIKR
notes: Detected with anti-human IgG; also called G2D03 mAb; anti-GRP78 monoclonal antibody (G2D03)
With B1, the binding result was “binds”.

The values are drawn from patent US20250019426A1 (UCT BIOSCIENCE, published 2025).
